# In the supplement of paper PMC8728848:
# The list shows a part of the results.
# What was measured:
# Test in all cases: glycan array binding signal (z-score within array); higher = stronger binding
# Details in all cases: glycan notation: IUPAC condensed, linker removed; mutation: E321K
# [1] = target: GalNAc(b1-3)GalNAc
# Method in brief: (§1)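 Glycan array binding is given as a within-array Z-score, which can be read as non-binding when negative. The arrays, 3228 of them, came from the Consortium for Functional Glycomics database and were retained only where the protein sequence was available. Z-scores were averaged across arrays of the same protein sequence at different concentrations or buffers and across linkers.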
# [2] = target: GalNAc(b1-4)GlcNAc
# Method in brief: as §1
# [3] = target: Glc(a1-4)Glc
# Method in brief: as §1
# [4] = target: Glc(a1-6)Glc(a1-6)Glc
# Method in brief: as §1
# [5] = target: Glc(b1-4)Glc
# Method in brief: as §1
# [6] = target: Glc(b1-6)Glc
# Method in brief: as §1
# [7] = target: GlcA(b1-3)Gal
# Method in brief: as §1
# [8] = target: GlcA(b1-3)GlcNAc
# Method in brief: as §1
# [9] = target: GlcA(b1-6)Gal
# Method in brief: as §1
# [10] = target: GlcNAc(a1-3)Gal(b1-4)GlcNAc
# Method in brief: as §1
# [11] = target: GlcNAc(a1-6)Gal(b1-4)GlcNAc
# Method in brief: as §1
# [12] = target: GlcNAc(b1-2)Gal(b1-3)GalNAc
# Method in brief: as §1
# [13] = target: GlcNAc(b1-2)Man(a1-3)[GlcNAc(b1-2)Man(a1-6)]Man(b1-4)GlcNAc(b1-4)GlcNAc
# Method in brief: as §1
# [14] = target: GlcNAc(b1-3)Gal
# Method in brief: as §1
# [15] = target: GlcNAc(b1-3)Gal(b1-3)GalNAc
# Method in brief: as §1
# [16] = target: GlcNAc(b1-3)Gal(b1-4)Glc
# Method in brief: as §1
# [17] = target: GlcNAc(b1-3)Gal(b1-4)GlcNAc
# Method in brief: as §1
# [18] = target: GlcNAc(b1-3)Gal(b1-4)GlcNAc(b1-3)Gal(b1-4)GlcNAc
# Method in brief: as §1
# [19] = target: GlcNAc(b1-3)GalNAc
# Method in brief: as §1
# [20] = target: GlcNAc(b1-3)Man
# Method in brief: as §1
# [21] = target: GlcNAc(b1-3)[GlcNAc(b1-4)][GlcNAc(b1-6)]GlcNAc
# Method in brief: as §1
# [22] = target: GlcNAc(b1-3)[GlcNAc(b1-6)]Gal(b1-4)GlcNAc
# Method in brief: as §1
# [23] = target: GlcNAc(b1-3)[GlcNAc(b1-6)]GalNAc
# Method in brief: as §1
# [24] = target: GlcNAc(b1-4)Gal(b1-4)GlcNAc
# Method in brief: as §1
# [25] = target: GlcNAc(b1-4)GlcNAc
# Method in brief: as §1
# [26] = target: GlcNAc(b1-4)GlcNAc(b1-4)GlcNAc
# Method in brief: as §1
# [27] = target: GlcNAc(b1-4)GlcNAc(b1-4)GlcNAc(b1-4)GlcNAc(b1-4)GlcNAc
# Method in brief: as §1
# [28] = target: GlcNAc(b1-4)GlcNAc(b1-4)GlcNAc(b1-4)GlcNAc(b1-4)GlcNAc(b1-4)GlcNAc
# Method in brief: as §1
# [29] = target: GlcNAc(b1-4)[GlcNAc(b1-6)]GalNAc
# Method in brief: as §1
# [30] = target: GlcNAc(b1-6)Gal(b1-4)GlcNAc
# Method in brief: as §1
# [31] = target: GlcNAc(b1-6)GalNAc
# Method in brief: as §1
# [32] = target: GlcNAc3Prop(b1-4)GlcNAc
# Method in brief: as §1
# [33] = target: Kdn(a2-3)Gal(b1-3)GlcNAc
# Method in brief: as §1
# [34] = target: Kdn(a2-3)Gal(b1-4)GlcNAc
# Method in brief: as §1
# [35] = target: Man(a1-2)Man(a1-2)Man(a1-3)Man
# Method in brief: as §1
# [36] = target: Man(a1-2)Man(a1-2)Man(a1-6)[Man(a1-3)]Man
# Method in brief: as §1
# [37] = target: Man(a1-2)Man(a1-3)Man
# Method in brief: as §1
# [38] = target: Man(a1-2)Man(a1-3)[Man(a1-2)Man(a1-6)]Man
# Method in brief: as §1
# [39] = target: Man(a1-2)Man(a1-3)[Man(a1-2)Man(a1-6)]Man(a1-6)[Man(a1-2)Man(a1-2)Man(a1-3)]Man
# Method in brief: as §1
# [40] = target: Man(a1-2)Man(a1-3)[Man(a1-2)Man(a1-6)]Man(a1-6)[Man(a1-2)Man(a1-2)Man(a1-3)]Man(b1-4)GlcNAc(b1-4)GlcNAc
# Method in brief: as §1
# [41] = target: Man(a1-2)Man(a1-3)[Man(a1-6)]Man(a1-6)[Man(a1-2)Man(a1-3)]Man(b1-4)GlcNAc(b1-4)GlcNAc
# Method in brief: as §1
# [42] = target: Man(a1-2)Man(a1-6)[Man(a1-3)]Man(a1-6)[Man(a1-2)Man(a1-2)Man(a1-3)]Man
# Method in brief: as §1
# [43] = target: Man(a1-2)Man(a1-6)[Man(a1-3)]Man(a1-6)[Man(a1-2)Man(a1-2)Man(a1-3)]Man(b1-4)GlcNAc(b1-4)GlcNAc
# Method in brief: as §1
# [44] = target: Man(a1-3)[Man(a1-6)]Man
# Method in brief: as §1
# [45] = target: Man(a1-3)[Man(a1-6)]Man(a1-6)[Man(a1-2)Man(a1-3)]Man(b1-4)GlcNAc(b1-4)GlcNAc
# Method in brief: as §1
# [46] = target: Man(a1-3)[Man(a1-6)]Man(a1-6)[Man(a1-3)]Man
# Method in brief: as §1
# [47] = target: Man(a1-3)[Man(a1-6)]Man(a1-6)[Man(a1-3)]Man(b1-4)GlcNAc(b1-4)GlcNAc
# Method in brief: as §1
# [48] = target: Man(a1-3)[Man(a1-6)]Man(b1-4)GlcNAc(b1-4)GlcNAc
# Method in brief: as §1
# [49] = target: Man(a1-6)Man
# Method in brief: as §1
# [50] = target: Man(b1-4)GlcNAc
# Method in brief: as §1
# [51] = target: Neu5Ac(a2-3)Gal
# Method in brief: as §1
# [52] = target: Neu5Ac(a2-3)Gal(b1-3)GalNAc
# Method in brief: as §1
# [53] = target: Neu5Ac(a2-3)Gal(b1-3)GalNAc(b1-3)Gal(a1-4)Gal(b1-4)Glc
# Method in brief: as §1
# [54] = target: Neu5Ac(a2-3)Gal(b1-3)GalNAc(b1-3)Gal(b1-4)GlcNAc
# Method in brief: as §1
# [55] = target: Neu5Ac(a2-3)Gal(b1-3)GalNAc(b1-4)[Neu5Ac(a2-3)]Gal(b1-4)Glc
# Method in brief: as §1
# [56] = target: Neu5Ac(a2-3)Gal(b1-3)GalNAc6S
# Method in brief: as §1
# [57] = target: Neu5Ac(a2-3)Gal(b1-3)GlcNAc
# Method in brief: as §1
# [58] = target: Neu5Ac(a2-3)Gal(b1-3)GlcNAc(b1-3)Gal(b1-3)GlcNAc
# Method in brief: as §1
# [59] = target: Neu5Ac(a2-3)Gal(b1-3)GlcNAc6S
# Method in brief: as §1
binder,measurement,setting,value
Surfactant Protein D (Human); Neck + Carbohydrate Recognition Domain (NCRD) (Homo sapiens) (protein) MLLFLLSALVLLTQPLGYLEAEMKTYSHRTMPSACTLVMCSSVESGLPGRDRDGREGPRGEKGDPGLPGAAGQAGMPGQAGPVGPKGDNGSVGEPGPKGDTGPSGPPGPPGVPGPAGREGALGKQGNIGPQGKPGPKGEAGPKGEVGAPGMQGSAGARGLAGPKGERGVPGERGVPGNTGAAGSAGAMGPQGSPGARGPPGLKGDKGIPGDKGAKGESGLPDVASLRQQVEALQGQVQHLQAAFSQYKKVELFPNGQSVGEKIFKTAQFVKPFTEAQLLCTQAGGQLASPRSAAENAALQQLVVAKNEAAFLSMTDSKTEGKFTYPTGESLVYSNWAPGKPNDDGGSEDCVEIFTNGKWNDRACGEKRLVVCEF,glycan array binding signal (z-score),[1],0.36
same,glycan array binding signal (z-score),[2],0.233
same,glycan array binding signal (z-score),[3],-0.276
same,glycan array binding signal (z-score),[4],-1.22
same,glycan array binding signal (z-score),[5],-1.06
same,glycan array binding signal (z-score),[6],-0.245
same,glycan array binding signal (z-score),[7],-0.788
same,glycan array binding signal (z-score),[8],-0.699
same,glycan array binding signal (z-score),[9],-0.371
same,glycan array binding signal (z-score),[10],-0.533
same,glycan array binding signal (z-score),[11],1.09
same,glycan array binding signal (z-score),[12],-0.303
same,glycan array binding signal (z-score),[13],-0.307
same,glycan array binding signal (z-score),[14],-0.749
same,glycan array binding signal (z-score),[15],1.22
same,glycan array binding signal (z-score),[16],-0.659
same,glycan array binding signal (z-score),[17],-0.532
same,glycan array binding signal (z-score),[18],-0.73
same,glycan array binding signal (z-score),[19],-1.48
same,glycan array binding signal (z-score),[20],-0.467
same,glycan array binding signal (z-score),[21],0.464
same,glycan array binding signal (z-score),[22],-0.357
same,glycan array binding signal (z-score),[23],-0.62
same,glycan array binding signal (z-score),[24],0.48
same,glycan array binding signal (z-score),[25],2.94
same,glycan array binding signal (z-score),[26],-1.01
same,glycan array binding signal (z-score),[27],0.163
same,glycan array binding signal (z-score),[28],-0.106
same,glycan array binding signal (z-score),[29],1.29
same,glycan array binding signal (z-score),[30],-0.718
same,glycan array binding signal (z-score),[31],0.9
same,glycan array binding signal (z-score),[32],-0.82
same,glycan array binding signal (z-score),[33],-0.089
same,glycan array binding signal (z-score),[34],-0.628
same,glycan array binding signal (z-score),[35],0.995
same,glycan array binding signal (z-score),[36],0
same,glycan array binding signal (z-score),[37],0.763
same,glycan array binding signal (z-score),[38],-0.073
same,glycan array binding signal (z-score),[39],-0.797
same,glycan array binding signal (z-score),[40],0.067
same,glycan array binding signal (z-score),[41],-0.618
same,glycan array binding signal (z-score),[42],-0.222
same,glycan array binding signal (z-score),[43],0.149
same,glycan array binding signal (z-score),[44],-0.067
same,glycan array binding signal (z-score),[45],0.498
same,glycan array binding signal (z-score),[46],-0.383
same,glycan array binding signal (z-score),[47],-0.809
same,glycan array binding signal (z-score),[48],-0.27
same,glycan array binding signal (z-score),[49],-1.05
same,glycan array binding signal (z-score),[50],-0.51
same,glycan array binding signal (z-score),[51],-0.44
same,glycan array binding signal (z-score),[52],-0.355
same,glycan array binding signal (z-score),[53],-0.336
same,glycan array binding signal (z-score),[54],-0.559
same,glycan array binding signal (z-score),[55],-0.645
same,glycan array binding signal (z-score),[56],0.404
same,glycan array binding signal (z-score),[57],-0.259
same,glycan array binding signal (z-score),[58],-0.261
same,glycan array binding signal (z-score),[59],-0.012

# Pulled one by one from above, 4 records:
binder,measurement,setting,value
Surfactant Protein D (Human); Neck + Carbohydrate Recognition Domain (NCRD) (Homo sapiens) (protein) MLLFLLSALVLLTQPLGYLEAEMKTYSHRTMPSACTLVMCSSVESGLPGRDRDGREGPRGEKGDPGLPGAAGQAGMPGQAGPVGPKGDNGSVGEPGPKGDTGPSGPPGPPGVPGPAGREGALGKQGNIGPQGKPGPKGEAGPKGEVGAPGMQGSAGARGLAGPKGERGVPGERGVPGNTGAAGSAGAMGPQGSPGARGPPGLKGDKGIPGDKGAKGESGLPDVASLRQQVEALQGQVQHLQAAFSQYKKVELFPNGQSVGEKIFKTAQFVKPFTEAQLLCTQAGGQLASPRSAAENAALQQLVVAKNEAAFLSMTDSKTEGKFTYPTGESLVYSNWAPGKPNDDGGSEDCVEIFTNGKWNDRACGEKRLVVCEF,glycan array binding signal (z-score),[15],1.22
same,glycan array binding signal (z-score),[42],-0.222
same,glycan array binding signal (z-score),[5],-1.06
same,glycan array binding signal (z-score),[8],-0.699
